According to PubChem BioAssay AID1347076 (National Center for Advancing Translational Sciences (NCATS), 2019):
Screen size: about 400,000 compounds; about 13,000 (3.2%) were called active. Inconclusive means that the source gave no clear call. Such entries were picked first, then a sample of the others. Calls follow the shape of the dose curve; as a rule, active = well fitted cell-killing curve with a large enough effect; inconclusive = small, poorly fitted or top-dose-only effect, or effect the other way; inactive = flat fitted curve, though single readings scatter. Where the call is inconclusive, the potency comes from a doubtful curve fit.

assay: qHTS assay for MDR1-selective chemotherapeutics: Primary screen using the drug-selected MDR subline cells KB-V1; details: KB-V1 MDR cells viability, CellTiter-Glo, 72 h; series mostly up to 46.1 µM; also: nearly all actives have a fitted effect of over 60% in size
Outline: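 Compound-treated KB-V1 multidrug-resistant cells, 72 h, 37 degrees C; viability by CellTiter-Glo. Fitted qHTS curves give the values.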
Potency is read from the fitted curve at half-maximal effect.

Row | Compound | Potency
1 | CC(C)CNC(=O)c1c(N)n(Cc2ccco2)c2nc3ccccc3nc12 | active: 16.4 µM
2 | Cc1ccc(N)cc1Cl | inactive
3 | CCN1CCN(CC(c2ccccc2)c2ccccc2)CC1 | inactive
4 | Cc1ccc(C2=NC(C)(C)N3C2C3c2ccc([N+](=O)[O-])cc2)cc1 (configuration not stated) | active: 18.4 µM
5 | CC12Cc3cn[nH]c3C=C1CCC1C2CCC2(C)C1CCC2(C)O (configuration not stated) | inconclusive: 29.1 µM [cytotoxic, single point]
6 | NC(Cc1ccc(F)cc1)c1csc(Nc2ncccn2)n1 (configuration not stated) | inconclusive: 20.6 µM [cytotoxic, single point]
7 | COc1ccc(-n2c(CNCCc3ccc(C)cc3)nc3ccccc3c2=O)cc1 | inconclusive: 2.59 µM [cytotoxic, full curve, poor fit]
8 | C/C=C1\CN2[C@H]3C[C@@]45c6ccccc6N(C)[C@H]4[C@@H]2CC1C3[C@H]5O (some centres not stated) | inactive
9 | CC(C)(C)N1CC(C(=O)c2ccccc2)C1c1ccccc1 (configuration not stated) | active: 16.4 µM
10 | Cc1cccc(N2C(=O)NC(=O)/C(=C\c3cc(C)n(-c4sc5c(c4C#N)CCCC5)c3C)C2=O)c1C | inconclusive: 29.1 µM [cytotoxic, single point]
11 | CCOC(=O)c1c(-n2c(C)cc(C=C3C(=O)NC(=O)NC3=O)c2C)sc2c1CCCC2 | inconclusive: 29.1 µM [cytotoxic, single point]
12 | O=C(c1ccc(N2CCCCCC2)c([N+](=O)[O-])c1)N1CCC2(CC1)OCCO2 | inconclusive: 10.3 µM [cytotoxic, partial curve]
13 | COC(=O)CSC1=NP(=S)(SCC(=O)OC)N2CCCC2=C1C#N (configuration not stated) | inactive
14 | CC(C)Sc1nnc([C@@H](N)Cc2c[nH]c3ccccc23)o1 | active: 18.4 µM
15 | CCCCc1nc(N2CCNCC2)c(C#N)c2c1CSC(C)(C)C2 | inconclusive: 4.61 µM [cytotoxic, partial curve, poor fit]
16 | COc1cc(C)c(CN2CCN(c3ccccc3)CC2)cc1C | active: 13 µM
17 | CN1CCN(Cc2nc3ccccc3n2C)CC1 | inactive
18 | CN1C(=O)N(C)C(=O)C2(Cc3cc(NC(=O)c4ccccc4Cl)ccc3N3CCCC32)C1=O (configuration not stated) | inconclusive: 29.1 µM [rising, single point]
19 | CCC12CN3CC(CC)(CN(C1)C3c1ccccn1)C2=O (configuration not stated) | inactive
20 | Cc1c(N)c(C)c([N+](=O)[O-])c(C)c1[N+](=O)[O-] | inconclusive: 20.6 µM [cytotoxic, single point]
21 | CCOC(=O)[C@]12Cc3cc(OC)c(OC)cc3[C@H]1N(Cc1ccccc1)C(=O)c1ccccc12 | inconclusive: 18.4 µM [cytotoxic, partial curve, poor fit]
22 | CC(=O)N1CC(=O)Nc2ccc(F)cc2C1c1ccccc1 (configuration not stated) | inactive
23 | CCOC(=O)c1sc(/N=C/c2c(O)n(-c3ccccc3)c(=O)[nH]c2=O)c(C#N)c1C | active: 11.6 µM
24 | CC(=CCOc1ccc2ccc(=O)oc2c1)C1=CC(=O)C(C)(C)O1 | inconclusive: 18.4 µM [cytotoxic, single point]

Given field by field: 3 of the compounds above.
CC(=O)N1CC(=O)Nc2ccc(F)cc2C1c1ccccc1 (configuration not stated)
  Potency: inactive
CCOC(=O)c1sc(/N=C/c2c(O)n(-c3ccccc3)c(=O)[nH]c2=O)c(C#N)c1C
  Potency: active: 11.6 µM
CC(=CCOc1ccc2ccc(=O)oc2c1)C1=CC(=O)C(C)(C)O1
  Potency: inconclusive: 18.4 µM [cytotoxic, single point]

More results follow:

Row | Compound | Potency
25 | COc1ccccc1-n1c(O)c(/C=N/NC(=S)Nc2ccccc2)c(=O)[nH]c1=S | inactive
26 | O=C(c1cccc(Cl)c1)C1CCCN(Cc2ccon2)C1 (configuration not stated) | inactive
27 | O=C1NC(=O)C(CCc2ccncc2)(Cc2ccc3c(c2)OCO3)C(=O)N1CCc1ccccc1 (configuration not stated) | inconclusive: 11.2 µM [cytotoxic, partial curve, poor fit]
28 | CC(C)c1ccc(N2C(=O)NC(=O)/C(=C/C=C/c3ccco3)C2=O)cc1 | inconclusive: 13 µM [cytotoxic, partial curve]
29 | CCOC(=O)C12C(=O)OCC1C2c1ccccc1 (configuration not stated) | inactive
30 | C[C@]12CCC(=O)C=C1CCC1C2CC[C@@]2(C)C1CC[C@@]2(O)CC#N (some centres not stated) | inactive
31 | COC(COC(N)=O)C1=C(N2CC2)C(=O)C(C)=C(N2CC2)C1=O (configuration not stated) | inconclusive: 2.31 µM [cytotoxic, partial curve, poor fit]
32 | O=C1NC(=O)N(Cc2ccccc2Cl)C(=O)/C1=C/c1cccs1 | inactive
33 | CN1C2c3ccccc3C3C4c5ccccc5C(C31)C(C2[N+](=O)[O-])N4C (configuration not stated) | inactive
34 | Cc1ccc(CN2Cc3ccc(Br)cc3-n3nncc3C2)cc1 | inactive
35 | COc1ccc([N+](=O)[O-])cc1N=Cc1c(O)n(CCc2ccccc2)c(=O)n(C(C)C)c1=O | inconclusive: 16.4 µM [cytotoxic, partial curve]
36 | CCCCn1c(O)c(C=NCCN2CCCCC2)c(=O)[nH]c1=O | inconclusive: 20.6 µM [rising, single point]
37 | CC12CN3CC(C)(CN(C1)C3c1cccnc1)C2=O (configuration not stated) | inconclusive: 23.1 µM [rising, partial curve, poor fit]
38 | O=P(Oc1ccccc1)(Oc1ccccc1)N1CCN(c2ccc(F)cc2)CC1 | inconclusive: 18.4 µM [cytotoxic, single point]
39 | CC(C)(C)c1ccc(CSc2cnn(C(C)(C)C)c(=O)c2Cl)cc1 | inconclusive: 0.461 µM [cytotoxic, partial curve, poor fit]
40 | Cn1c(O)c(C(c2ccncc2)c2c(O)n(C)c(=S)n(C)c2=O)c(=O)n(C)c1=S | inconclusive: 29.1 µM [rising, single point]
41 | CCOc1ccccc1CN1CCCC(C(=O)c2cc(F)ccc2F)C1 (configuration not stated) | inactive
42 | Cc1cccc(N2CCN(CCc3ccccc3)CC2)c1C | inconclusive: 11.6 µM [cytotoxic, partial curve]
43 | O=C1NC(=O)N(CCc2ccc(F)cc2)C(=O)/C1=C/C=C/c1ccccc1 | inconclusive: 29.1 µM [cytotoxic, single point]
44 | Cc1ccc(NC(=O)c2ccc(C)c(S(=O)(=O)N3CCCCC3)c2)nc1 | inactive
45 | CCP(=S)(CC)c1ccc(N(C)C)cc1 | inactive
46 | CCC(=NCCC(c1ccccc1)c1ccccc1)c1c(O)[nH]c(=O)[nH]c1=O | inconclusive: 9.2 µM [cytotoxic, partial curve]
47 | O=C(CSc1ccccc1)N1CCC2(CC1)OCCO2 | inconclusive: 20.6 µM [rising, partial curve, poor fit]
